Reference: PubChem BioAssay AID1259308 (NCATS, 2017)
The whole screen tested about 59,000 reagents; shown is a random part of them. About 1,510 of all reagents (2.6%) count as active. 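Calls use total luciferase alone and ignore viability, so some active siRNAs may act by altering cell number.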 The numbers tell different reagents against one gene apart.

Assay: 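Knock-downs that increase output of a recombinant reporter protein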 (primary screen)
Cell system: human HEK293 embryonic kidney cells stably expressing firefly luciferase (HEK-CMV-Luc2-Hygro)
Knock-down reagent: single siRNA against human genes, 0.8 pmol siRNA per well
Duration: 72 h
Read-out: 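Reporter luminescence and viable-cell signal on separate replicate plates, given as percent of non-targeting control and median/MAD z-scores, plus per-cell luciferase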
Reading the numbers: total luciferase, z-score and total luciferase, % of control: higher = more reporter protein produced; luciferase per cell, z-score: higher = more reporter output per viable cell; viable cells, % of control: higher = more viable cells
Rule for the call: 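An siRNA counts as active if its total luciferase robust z-score exceeds 3; genes with two or more such siRNAs out of three were retested with fresh siRNAs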
Calls: active = raised luciferase; inactive = no rise

target	siRNA no.	total luciferase, z-score	total luciferase, % of control	luciferase per cell, z-score	viable cells, % of control	activity call
LCE3D (late cornified envelope 3D)	1	2.22	126	1.1	105	inactive
LCE3D (late cornified envelope 3D)	2	-1.93	43.5	-2.3	88.9	inactive
LCE3D (late cornified envelope 3D)	3	-2.79	26.4	-0.715	35.6	inactive
PI4KA (phosphatidylinositol 4-kinase alpha)	1	-0.108	79.7	-0.519	102	inactive
PI4KA (phosphatidylinositol 4-kinase alpha)	2	-0.835	65.3	-0.987	94.6	inactive
PI4KA (phosphatidylinositol 4-kinase alpha)	3	-0.0105	81.7	-0.371	101	inactive
SAP18 (Sin3A associated protein 18)	1	0.277	87.4	0.391	88.1	inactive
SAP18 (Sin3A associated protein 18)	2	0.225	86.4	2.09	55.6	inactive
SAP18 (Sin3A associated protein 18)	3	-0.545	71	0.0983	77.4	inactive
LHFPL2 (LHFPL tetraspan subfamily member 2)	1	2.46	131	2.18	82.3	inactive
LHFPL2 (LHFPL tetraspan subfamily member 2)	2	1.26	107	0.739	98.3	inactive
LHFPL2 (LHFPL tetraspan subfamily member 2)	3	-0.331	75.3	-0.289	90.8	inactive
SHMT2 (serine hydroxymethyltransferase 2)	1	2.73	136	2.12	87	inactive
SHMT2 (serine hydroxymethyltransferase 2)	2	0.349	88.8	0.154	95.3	inactive
SHMT2 (serine hydroxymethyltransferase 2)	3	-0.843	65.1	-0.753	88.7	inactive
POLR1C (RNA polymerase I and III subunit C)	1	-0.831	65.4	0.19	69.5	inactive
POLR1C (RNA polymerase I and III subunit C)	2	0.599	93.8	0.339	95.9	inactive
POLR1C (RNA polymerase I and III subunit C)	3	1.46	111	1.13	92.1	inactive
ZC3H18 (zinc finger CCCH-type containing 18)	1	-0.0577	80.7	0.346	82.4	inactive
ZC3H18 (zinc finger CCCH-type containing 18)	2	1.72	116	1.71	82.7	inactive
ZC3H18 (zinc finger CCCH-type containing 18)	3	-0.235	77.2	0.231	81.2	inactive
GPR3 (G protein-coupled receptor 3)	1	-0.0562	80.8	0.807	73	inactive
GPR3 (G protein-coupled receptor 3)	2	-0.518	71.6	-0.189	84.1	inactive
GPR3 (G protein-coupled receptor 3)	3	0.0549	83	2.09	53.5	inactive
PAX4 (paired box 4)	1	0.894	99.7	0.415	99.8	inactive
PAX4 (paired box 4)	2	-0.166	78.6	-0.358	96.5	inactive
PAX4 (paired box 4)	3	-0.669	68.6	-0.964	98.8	inactive
DUSP11 (dual specificity phosphatase 11)	1	0.638	94.6	0.105	103	inactive
DUSP11 (dual specificity phosphatase 11)	2	0.371	89.3	-0.315	108	inactive
DUSP11 (dual specificity phosphatase 11)	3	-0.195	78	-0.732	106	inactive
OR13G1 (olfactory receptor family 13 subfamily G member 1)	1	-0.0835	80.2	0.0424	88.7	inactive
OR13G1 (olfactory receptor family 13 subfamily G member 1)	2	0.137	84.6	0.447	84.1	inactive
OR13G1 (olfactory receptor family 13 subfamily G member 1)	3	-0.829	65.4	-0.647	86.7	inactive
EMB (embigin)	1	0.807	97.9	1.72	69.6	inactive
EMB (embigin)	2	-0.279	76.3	0.985	65.8	inactive
EMB (embigin)	3	-0.926	63.5	-1.33	101	inactive
ADAM30 (ADAM metallopeptidase domain 30)	1	-0.55	70.9	-0.69	95.1	inactive
ADAM30 (ADAM metallopeptidase domain 30)	2	-0.167	78.6	-0.537	101	inactive
ADAM30 (ADAM metallopeptidase domain 30)	3	3.04	142	1.43	109	active

5 entries from above, ordered by “total luciferase, % of control”, low to high.
target	siRNA no.	total luciferase, z-score	total luciferase, % of control	luciferase per cell, z-score	viable cells, % of control	activity call
SHMT2 (serine hydroxymethyltransferase 2)	3	-0.843	65.1	-0.753	88.7	inactive
POLR1C (RNA polymerase I and III subunit C)	1	-0.831	65.4	0.19	69.5	inactive
ZC3H18 (zinc finger CCCH-type containing 18)	1	-0.0577	80.7	0.346	82.4	inactive
POLR1C (RNA polymerase I and III subunit C)	2	0.599	93.8	0.339	95.9	inactive
POLR1C (RNA polymerase I and III subunit C)	3	1.46	111	1.13	92.1	inactive
